Results on one substance are retold here after article PMC8718910.

For this assay, the target named is T1, rat nucleosome assembly protein 1 like 5 (rNap1l5-Flag) (rat) (UniProt Q5PPG6).
T1 sequence: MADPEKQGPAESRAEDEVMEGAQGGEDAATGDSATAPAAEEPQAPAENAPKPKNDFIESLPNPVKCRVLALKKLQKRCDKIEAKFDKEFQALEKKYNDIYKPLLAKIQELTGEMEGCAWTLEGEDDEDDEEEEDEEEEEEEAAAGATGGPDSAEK
The assay is described as follows: co-IP; HEK293T cells co-transfected with the plasmids; IP buffer 50mM Tris-HCl (pH 8.0), 150mM NaCl, 2mM EDTA, 1% NP-40, 5% glycerol; 1 μg antibody and protein A/G-agarose beads at 4°C overnight; blotted with the indicated primary antibodies.

No constants are given. Whether binding was seen depends on the method and setting. In cells and extracts the contact can be indirect. Sequences can lack the tags named with a protein.

As for “rat nucleolar protein 6, full-length (Nol6)”, the binding result is recorded as “no binding”.
